Changes are numbered by the printed parent chain. Names may count otherwise. These are yes or no findings as the source states them, for the method shown.

The target in assay [1] is ϕC31 integrase S12A/Y475H (Streptomyces phage ϕC31) (UniProt Q9T221). The assay is described as follows: SEC-MALS. A general note: In gel filtration, larger molecules generally elute earlier.
Assay [2] concerns the target ϕC31 integrase S12A/D477K (Streptomyces phage ϕC31) (UniProt Q9T221). The assay is described as follows: SEC-MALS.

B1: ϕC31 integrase S12A/Y475H (enzyme, UniProt Q9T221 1-605)
chain: MDTYAGAYDRQARERENSSAASPATQRSANEDKAADLQREVERDGGRFRFVGHFSEAPGTSAFGTAERPEFERILNECRAGRLNMIIVYDVSRFSRLKVMDAIPIVSELLALGVTIVSTQEGVFRQGNVMDLIHLIMRLDASHKESSLKSAKILDTKNLQRELGGYVGGKAPYGFELVSETKEITRNGRMVNVVINKLAHSTTPLTGPFEFEPDVIRWWWREIKTHKHLPFKPGSQAAIHPGSITGLCKRMDADAVPTRGETIGKKTASSAWDPATVMRILRDPRIAGFAAEVIYKKKPDGTPTTKIEGYRIQRDPITLRPVELDCGPIIEPAEWYELQAWLDGRGRGKGLSRGQAILSAMDKLYCECGAVMTSKRGEESIKDSYRCRRRKVVDPSAPGQHEGTCNVSMAALDKFVAERIFNKIRHAEGDEETLALLWEAARRFGKLTEAPEKSGERANLVAERADALNALEELHEDRAAGAYDGPVGRKHFRKQQAALTLRQQGAEERLAELEAAEAPKLPLDQWFPEDADADPTGPKSWWGRASVDDKRVFVGLFVDKIVVTKSTTGRGQGTPIEKRASITWAKPPTDDDEDDAQDGTEDVAA
Turning to B1, the binding entry in assay [1] is “no binding”.

B2: ϕC31 integrase S12A/D477K (enzyme, UniProt Q9T221 1-605)
chain: B1 chain with H475Y, D477K
For the molecule B2, the binding entry in assay [2] is given as “no binding”.

(Values after paper doi:10.1101/2025.05.02.651858.)
